Assay: general procedure: Fmoc solid-phase peptide synthesis; Rink Amide-MBHA resin (0.646 mmol/g); HOBt/DIC
Settings: whole synthesis, analytical HPLC, scale of the general procedure 100 mg resin

Substance | final HPLC purity
Ac-SQEQLEHRERSLQTLRDIQRMLF-NH2 | 100.0%
Flu-Beta-Ala-SQEQLEHRERSLQTLRDIQRMLF | 100.0%
